These are yes or no findings as the source states them, for the method shown. Where a sequence is shown, tags or fusion partners need not be part of it.
Legend:
[1] = target: TCTP His76Ala-His77Ala mutant, untagged recombinant (human) (UniProt P13693); experiment: SEC; 16/60 Superdex 75, 50 mM Tris-HCl pH 7.8, 250 mM NaCl, 1 mM EDTA; no ligand; both purified
[2] = target: TCTP His76Ala-His77Ala mutant, untagged recombinant (human) (UniProt P13693); experiment: SEC; 16/60 Superdex 75 equilibrated with 50 mM Tris-HCl pH 7.8, 250 mM NaCl, 1 mM hemin; protein pre-incubated with hemin for 15 min; pooled dimer fractions re-run with 50 mM CaCl2 shifted back mainly to monomer; both purified

binding [1]: no binding
binding [2]: no binding
B1: TCTP His76Ala-His77Ala mutant, untagged recombinant (protein, UniProt P13693 1-172)
chain: MIIYRDLISHDEMFSDIYKIREIADGLCLEVEGKMVSRTEGNIDDSLIGGNASAEGPEGEGTESTVITGVDIVMNAALQETSFTKEAYKKYIKDYMKSIKGKLEEQRPERVKPFMTGAAEQIKHILANFKNYQFFIGENMNPDGMVALLDYREDGVTPYMIFFKDGLEMEKC
